# The list shows a part of the results.
# B1: SynCAM (Mus musculus) (protein)
# chain: MASAVLPSGSQCAAAAAVAAAAAPPGLRLRLLLLLLSAAALIPTGDGQNLFTKDVTVIEGEVATISCQVNKSDDSVIQLLNPNRQTIYFRDFRPLKDSRFQLLNFSSSELKVSLTNVSISDEGRYFCQLYTDPPQESYTTITVLVPPRNLMIDIQKDTAVEGEEIEVNCTAMASKPATTIRWFKGNKELKGKSEVEEWSDMYTVTSQLMLKVHKEDDGVPVICQVEHPAVTGNLQTQRYLEVQYKPQVHIQMTYPLQGLTREGDAFELTCEAIGKPQPVMVTWVRVDDEMPQHAVLSGPNLFINNLNKTDNGTYRCEASNIVGKAHSDYMLYVYDPPTTIPPP
# Key:
# Assay in all cases: glycan array binding signal (z-score within array); higher = stronger binding
# Conditions in all cases: glycan notation: IUPAC condensed, linker removed
# [1] = target: Fuc(a1-2)[Gal(a1-3)]Gal(b1-4)GlcNAc(b1-2)Man(a1-3)[Fuc(a1-2)[Gal(a1-3)]Gal(b1-4)GlcNAc(b1-2)Man(a1-6)]Man(b1-4)GlcNAc(b1-4)[Fuc(a1-6)]GlcNAc
# Summary of the method: (§1)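 Arrays were curated from the Consortium for Functional Glycomics database, 3228 in total, and kept only where the protein sequence was available. Binding is expressed as a within-array Z-score. This score was averaged across arrays of the same protein sequence at different concentrations or buffers and across linkers, and negative values can be read as non-binding.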
# [2] = target: Fuc(a1-2)[Gal(a1-3)]Gal(b1-4)GlcNAc(b1-3)GalNAc
# Summary of the method: as §1
# [3] = target: Fuc(a1-2)[Gal(a1-3)]Gal(b1-4)GlcNAc(b1-3)[Fuc(a1-2)[Gal(a1-3)]Gal(b1-4)GlcNAc(b1-6)]GalNAc
# Summary of the method: as §1
# [4] = target: Fuc(a1-2)[Gal(a1-3)]Gal(b1-4)GlcNAc(b1-6)GalNAc
# Summary of the method: as §1
# [5] = target: Fuc(a1-2)[Gal(a1-3)]Gal(b1-4)[Fuc(a1-3)]Glc
# Summary of the method: as §1
# [6] = target: Fuc(a1-2)[Gal(a1-3)]Gal(b1-4)[Fuc(a1-3)]GlcNAc
# Summary of the method: as §1
# [7] = target: Fuc(a1-2)[Gal(a1-3)]Gal(b1-4)[Fuc(a1-3)]GlcNAc(b1-3)GalNAc
# Summary of the method: as §1
# [8] = target: Fuc(a1-2)[Gal(a1-4)]Gal(b1-4)GlcNAc
# Summary of the method: as §1
# [9] = target: Fuc(a1-2)[GalNAc(a1-3)]Gal
# Summary of the method: as §1
# [10] = target: Fuc(a1-2)[GalNAc(a1-3)]Gal(b1-3)GalNAc(a1-3)[Fuc(a1-2)]Gal(b1-4)GlcNAc
# Summary of the method: as §1
# [11] = target: Fuc(a1-2)[GalNAc(a1-3)]Gal(b1-3)GalNAc(b1-3)Gal(a1-4)Gal(b1-4)Glc
# Summary of the method: as §1
# [12] = target: Fuc(a1-2)[GalNAc(a1-3)]Gal(b1-3)GlcNAc
# Summary of the method: as §1
# [13] = target: Fuc(a1-2)[GalNAc(a1-3)]Gal(b1-3)GlcNAc(b1-2)Man(a1-3)[Fuc(a1-2)[GalNAc(a1-3)]Gal(b1-3)GlcNAc(b1-2)Man(a1-6)]Man(b1-4)GlcNAc(b1-4)GlcNAc
# Summary of the method: as §1
# [14] = target: Fuc(a1-2)[GalNAc(a1-3)]Gal(b1-3)GlcNAc(b1-2)Man(a1-3)[Fuc(a1-2)[GalNAc(a1-3)]Gal(b1-3)GlcNAc(b1-2)Man(a1-6)]Man(b1-4)GlcNAc(b1-4)[Fuc(a1-6)]GlcNAc
# Summary of the method: as §1
# [15] = target: Fuc(a1-2)[GalNAc(a1-3)]Gal(b1-3)GlcNAc(b1-3)GalNAc
# Summary of the method: as §1
# [16] = target: Fuc(a1-2)[GalNAc(a1-3)]Gal(b1-3)GlcNAc(b1-6)GalNAc
# Summary of the method: as §1
# [17] = target: Fuc(a1-2)[GalNAc(a1-3)]Gal(b1-4)Glc
# Summary of the method: as §1
# [18] = target: Fuc(a1-2)[GalNAc(a1-3)]Gal(b1-4)GlcNAc
# Summary of the method: as §1
# [19] = target: Fuc(a1-2)[GalNAc(a1-3)]Gal(b1-4)GlcNAc(b1-2)Man
# Summary of the method: as §1
# [20] = target: Fuc(a1-2)[GalNAc(a1-3)]Gal(b1-4)GlcNAc(b1-2)Man(a1-3)[Fuc(a1-2)[GalNAc(a1-3)]Gal(b1-4)GlcNAc(b1-2)Man(a1-6)]Man(b1-4)GlcNAc(b1-4)GlcNAc
# Summary of the method: as §1
# [21] = target: Fuc(a1-2)[GalNAc(a1-3)]Gal(b1-4)GlcNAc(b1-2)Man(a1-3)[Fuc(a1-2)[GalNAc(a1-3)]Gal(b1-4)GlcNAc(b1-2)Man(a1-6)]Man(b1-4)GlcNAc(b1-4)[Fuc(a1-6)]GlcNAc
# Summary of the method: as §1
# [22] = target: Fuc(a1-2)[GalNAc(a1-3)]Gal(b1-4)GlcNAc(b1-3)Gal(b1-4)GlcNAc
# Summary of the method: as §1
# [23] = target: Fuc(a1-2)[GalNAc(a1-3)]Gal(b1-4)GlcNAc(b1-3)Gal(b1-4)GlcNAc(b1-3)Gal(b1-4)GlcNAc
# Summary of the method: as §1
# [24] = target: Fuc(a1-2)[GalNAc(a1-3)]Gal(b1-4)GlcNAc(b1-3)GalNAc
# Summary of the method: as §1
# [25] = target: Fuc(a1-2)[GalNAc(a1-3)]Gal(b1-4)GlcNAc(b1-3)[Fuc(a1-2)[GalNAc(a1-3)]Gal(b1-4)GlcNAc(b1-6)]GalNAc
# Summary of the method: as §1
# [26] = target: Fuc(a1-2)[GalNAc(a1-3)]Gal(b1-4)GlcNAc(b1-6)GalNAc
# Summary of the method: as §1
# [27] = target: Fuc(a1-2)[GalNAc(a1-3)]Gal(b1-4)[Fuc(a1-3)]GlcNAc
# Summary of the method: as §1
# [28] = target: Fuc(a1-2)[GalNAc(a1-3)]Gal(b1-4)[Fuc(a1-3)]GlcNAc(b1-3)GalNAc
# Summary of the method: as §1
# [29] = target: Fuc(a1-2)[GalNAc(a1-4)]Gal(b1-4)GlcNAc
# Summary of the method: as §1
# [30] = target: Fuc(a1-2)[GalNAc(b1-3)]Gal
# Summary of the method: as §1
# [31] = target: Fuc(a1-3)GlcNAc
# Summary of the method: as §1
# [32] = target: Fuc(a1-3)[Gal(b1-4)]Glc6S
# Summary of the method: as §1
# [33] = target: Fuc(a1-3)[Gal(b1-4)]GlcNAc
# Summary of the method: as §1
# [34] = target: Fuc(a1-3)[Gal(b1-4)]GlcNAc(b1-2)Man
# Summary of the method: as §1
# [35] = target: Fuc(a1-3)[Gal(b1-4)]GlcNAc(b1-2)Man(a1-3)[Fuc(a1-3)[Gal(b1-4)]GlcNAc(b1-2)Man(a1-6)]Man(b1-4)GlcNAc(b1-4)GlcNAc
# Summary of the method: as §1
# [36] = target: Fuc(a1-3)[Gal(b1-4)]GlcNAc(b1-2)Man(a1-3)[Fuc(a1-3)[Gal(b1-4)]GlcNAc(b1-2)Man(a1-6)]Man(b1-4)GlcNAc(b1-4)[Fuc(a1-6)]GlcNAc
# Summary of the method: as §1
# [37] = target: Fuc(a1-3)[Gal(b1-4)]GlcNAc(b1-3)Gal(b1-3)[Fuc(a1-4)]GlcNAc
# Summary of the method: as §1
binder,measurement,setting,value
B1,glycan array binding signal (z-score),[1],-0.402
same,glycan array binding signal (z-score),[2],-0.463
same,glycan array binding signal (z-score),[3],-0.161
same,glycan array binding signal (z-score),[4],-0.006
same,glycan array binding signal (z-score),[5],0.197
same,glycan array binding signal (z-score),[6],0.293
same,glycan array binding signal (z-score),[7],-0.466
same,glycan array binding signal (z-score),[8],0.231
same,glycan array binding signal (z-score),[9],0.275
same,glycan array binding signal (z-score),[10],-0.208
same,glycan array binding signal (z-score),[11],0.235
same,glycan array binding signal (z-score),[12],-0.544
same,glycan array binding signal (z-score),[13],-0.574
same,glycan array binding signal (z-score),[14],-0.627
same,glycan array binding signal (z-score),[15],0.487
same,glycan array binding signal (z-score),[16],0.367
same,glycan array binding signal (z-score),[17],0.01
same,glycan array binding signal (z-score),[18],-0.651
same,glycan array binding signal (z-score),[19],0.164
same,glycan array binding signal (z-score),[20],-0.287
same,glycan array binding signal (z-score),[21],-0.535
same,glycan array binding signal (z-score),[22],-1.5
same,glycan array binding signal (z-score),[23],-0.416
same,glycan array binding signal (z-score),[24],-0.516
same,glycan array binding signal (z-score),[25],-0.716
same,glycan array binding signal (z-score),[26],-0.149
same,glycan array binding signal (z-score),[27],-0.028
same,glycan array binding signal (z-score),[28],0.535
same,glycan array binding signal (z-score),[29],-0.052
same,glycan array binding signal (z-score),[30],0.423
same,glycan array binding signal (z-score),[31],-0.37
same,glycan array binding signal (z-score),[32],-1.77
same,glycan array binding signal (z-score),[33],-0.177
same,glycan array binding signal (z-score),[34],-0.737
same,glycan array binding signal (z-score),[35],-1.05
same,glycan array binding signal (z-score),[36],0.325
same,glycan array binding signal (z-score),[37],-0.868

# Some of the entries so far, as tab-separated lines.
binder	measurement	setting	value
B1	glycan array binding signal (z-score)	[17]	0.01
same	glycan array binding signal (z-score)	[18]	-0.651

# Reference: the supplement of paper PMC8728848
